# The supplement of paper PMC12819154, “High-throughput peptide-centric local stability assay extends protein–ligand identification to membrane proteins, tissues and bacteria” (Nature Structural & Molecular Biology, 2025)
# Chains of the proteins cited; added tags and fusions are not shown. Lines headed by an entry give the natural chain unless they say otherwise; changes in a name come on top.
# UniProt Q15014, whole entry: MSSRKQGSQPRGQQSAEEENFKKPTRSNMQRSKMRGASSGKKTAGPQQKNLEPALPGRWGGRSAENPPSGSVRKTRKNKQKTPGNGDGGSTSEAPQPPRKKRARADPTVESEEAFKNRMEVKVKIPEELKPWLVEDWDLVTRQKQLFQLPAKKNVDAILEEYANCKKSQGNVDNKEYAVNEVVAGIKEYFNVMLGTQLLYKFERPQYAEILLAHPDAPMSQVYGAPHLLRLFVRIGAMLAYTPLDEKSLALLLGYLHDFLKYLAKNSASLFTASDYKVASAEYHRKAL
# UniProt Q13895: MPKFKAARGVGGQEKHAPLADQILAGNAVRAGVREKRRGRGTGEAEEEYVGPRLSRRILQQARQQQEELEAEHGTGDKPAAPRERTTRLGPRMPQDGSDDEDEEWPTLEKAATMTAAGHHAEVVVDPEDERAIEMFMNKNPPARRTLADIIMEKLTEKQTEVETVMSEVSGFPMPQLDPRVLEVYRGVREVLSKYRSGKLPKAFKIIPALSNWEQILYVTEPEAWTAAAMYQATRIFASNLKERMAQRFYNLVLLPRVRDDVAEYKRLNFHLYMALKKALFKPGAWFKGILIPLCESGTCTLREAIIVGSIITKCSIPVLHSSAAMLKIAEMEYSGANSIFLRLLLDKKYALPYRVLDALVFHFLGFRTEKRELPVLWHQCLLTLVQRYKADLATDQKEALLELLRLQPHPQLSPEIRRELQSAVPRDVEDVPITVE
# UniProt Q14767: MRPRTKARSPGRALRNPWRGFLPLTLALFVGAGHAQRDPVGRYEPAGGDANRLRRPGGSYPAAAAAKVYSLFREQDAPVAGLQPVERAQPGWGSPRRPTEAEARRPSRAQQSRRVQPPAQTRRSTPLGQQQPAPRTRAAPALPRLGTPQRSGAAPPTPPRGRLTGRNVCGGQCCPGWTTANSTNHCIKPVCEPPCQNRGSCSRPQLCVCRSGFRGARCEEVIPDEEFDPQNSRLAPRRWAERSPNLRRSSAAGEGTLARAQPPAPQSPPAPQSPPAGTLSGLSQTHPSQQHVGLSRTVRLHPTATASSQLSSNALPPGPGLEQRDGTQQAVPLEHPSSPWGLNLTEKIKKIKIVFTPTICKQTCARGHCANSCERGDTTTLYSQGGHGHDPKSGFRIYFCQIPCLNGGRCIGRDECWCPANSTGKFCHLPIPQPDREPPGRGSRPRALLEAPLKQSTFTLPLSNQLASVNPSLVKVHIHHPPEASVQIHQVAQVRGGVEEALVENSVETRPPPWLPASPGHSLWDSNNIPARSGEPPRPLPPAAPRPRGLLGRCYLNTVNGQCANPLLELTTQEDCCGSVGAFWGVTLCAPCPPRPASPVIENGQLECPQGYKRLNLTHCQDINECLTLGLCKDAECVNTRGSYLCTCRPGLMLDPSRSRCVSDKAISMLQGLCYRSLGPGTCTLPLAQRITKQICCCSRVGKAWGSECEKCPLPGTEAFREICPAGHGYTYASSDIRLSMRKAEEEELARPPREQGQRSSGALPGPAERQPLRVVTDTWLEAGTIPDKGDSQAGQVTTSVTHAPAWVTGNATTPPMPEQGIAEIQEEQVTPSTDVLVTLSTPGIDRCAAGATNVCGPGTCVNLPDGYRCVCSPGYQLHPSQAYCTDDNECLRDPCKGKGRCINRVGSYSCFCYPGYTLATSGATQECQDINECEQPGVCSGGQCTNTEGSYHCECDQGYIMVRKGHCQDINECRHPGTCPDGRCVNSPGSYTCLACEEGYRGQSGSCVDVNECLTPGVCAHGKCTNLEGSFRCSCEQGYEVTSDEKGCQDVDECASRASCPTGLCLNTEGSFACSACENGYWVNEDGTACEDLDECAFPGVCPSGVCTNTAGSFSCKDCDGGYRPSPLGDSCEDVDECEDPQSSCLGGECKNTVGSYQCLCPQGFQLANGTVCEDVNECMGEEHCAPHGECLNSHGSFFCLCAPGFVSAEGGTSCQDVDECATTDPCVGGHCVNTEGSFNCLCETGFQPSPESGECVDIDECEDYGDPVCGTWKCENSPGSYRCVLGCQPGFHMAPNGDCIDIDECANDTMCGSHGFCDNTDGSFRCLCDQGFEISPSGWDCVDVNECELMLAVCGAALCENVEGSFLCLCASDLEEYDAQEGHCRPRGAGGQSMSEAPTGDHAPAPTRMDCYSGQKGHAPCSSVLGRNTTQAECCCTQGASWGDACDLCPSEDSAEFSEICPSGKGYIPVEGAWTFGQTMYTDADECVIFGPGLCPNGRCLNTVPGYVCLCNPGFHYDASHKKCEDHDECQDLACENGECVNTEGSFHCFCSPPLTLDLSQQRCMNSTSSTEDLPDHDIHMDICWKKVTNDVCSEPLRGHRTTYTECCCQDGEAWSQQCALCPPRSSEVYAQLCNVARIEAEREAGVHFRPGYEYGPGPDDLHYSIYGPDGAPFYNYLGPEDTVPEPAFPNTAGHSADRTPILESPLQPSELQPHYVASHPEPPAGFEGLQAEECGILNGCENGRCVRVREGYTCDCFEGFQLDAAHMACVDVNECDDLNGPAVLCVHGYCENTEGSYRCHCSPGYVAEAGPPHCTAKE
# UniProt Q13404: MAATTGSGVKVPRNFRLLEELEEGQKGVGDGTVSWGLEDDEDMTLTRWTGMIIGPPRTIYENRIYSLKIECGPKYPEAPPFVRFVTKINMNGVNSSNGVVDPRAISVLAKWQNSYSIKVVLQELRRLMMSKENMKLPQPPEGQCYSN
# UniProt Q14651: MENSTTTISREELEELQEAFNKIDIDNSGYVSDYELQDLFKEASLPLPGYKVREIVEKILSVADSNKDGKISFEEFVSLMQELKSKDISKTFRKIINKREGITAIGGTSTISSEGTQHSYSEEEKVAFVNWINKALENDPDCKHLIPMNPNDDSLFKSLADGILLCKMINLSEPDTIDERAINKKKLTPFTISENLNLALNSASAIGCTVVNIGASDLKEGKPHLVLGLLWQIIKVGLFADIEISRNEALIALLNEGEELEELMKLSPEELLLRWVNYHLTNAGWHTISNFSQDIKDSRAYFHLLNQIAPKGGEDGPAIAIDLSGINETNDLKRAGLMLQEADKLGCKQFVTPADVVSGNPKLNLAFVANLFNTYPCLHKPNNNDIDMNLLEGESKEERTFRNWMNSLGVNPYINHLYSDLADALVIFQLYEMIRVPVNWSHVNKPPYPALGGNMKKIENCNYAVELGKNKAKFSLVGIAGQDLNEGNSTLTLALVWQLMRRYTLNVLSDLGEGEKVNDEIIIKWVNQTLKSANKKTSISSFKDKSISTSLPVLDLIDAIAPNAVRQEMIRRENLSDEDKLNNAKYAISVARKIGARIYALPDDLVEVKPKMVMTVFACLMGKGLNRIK
# UniProt Q13825: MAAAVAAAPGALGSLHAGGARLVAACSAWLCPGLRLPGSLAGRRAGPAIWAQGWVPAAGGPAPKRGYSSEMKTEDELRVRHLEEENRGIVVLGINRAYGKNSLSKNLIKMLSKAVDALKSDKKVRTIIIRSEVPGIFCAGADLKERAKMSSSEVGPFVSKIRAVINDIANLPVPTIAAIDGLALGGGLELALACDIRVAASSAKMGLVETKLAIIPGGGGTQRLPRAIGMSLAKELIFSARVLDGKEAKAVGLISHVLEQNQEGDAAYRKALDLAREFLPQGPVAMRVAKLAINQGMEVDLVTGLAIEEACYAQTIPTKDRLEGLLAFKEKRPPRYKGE
# The list shows a part of the results. Most values lie at the level of the controls, where differences are scatter.
# Compound: CN[C@@H]1C[C@H]2O[C@@](C)([C@@H]1OC)n1c3ccccc3c3c4c(c5c6ccccc6n2c5c31)C(=O)NC4 [staurosporine]
# Assay: log2 fold change of tryptic peptide abundance, ligand vs vehicle (limited proteolysis) (log2 ratio); higher = more trypsin-susceptible (destabilized)
# Details: ligand concentration: 20 uM; sample: K562 cleared lysate; digestion: 4 min, 22 C (HT-PELSA RT4min, Orbitrap Astral)
row,Target,log2 fold change
1,"MORF4L2 (peptide sequence: QKTPGNGDGGSTSEAPQPPRK, peptide start residue: 80) (UniProt Q15014)",-0.574
2,"BYSL (peptide sequence: LQPHPQLSPEIRR, peptide start residue: 407) (UniProt Q13895)",-0.661
3,"UniProt Q14767 (peptide sequence: GSCSRPQLCVCR, peptide start residue: 199)",0.392
4,"UBE2V1 (peptide sequence: WQNSYSIK, peptide start residue: 109) (UniProt Q13404)",0.451
5,"GNL2 (peptide sequence: TYKIDSWENAEDFLEK, peptide start residue: 409) (UniProt Q13823)",0.464
6,"PLS1 (peptide sequence: SLADGILLCK, peptide start residue: 158) (UniProt Q14651)",0.311
7,"AUH (peptide sequence: LEGLLAFK, peptide start residue: 322) (UniProt Q13825)",0.406
